In the assay the target is Polθ-FLAG-HA fusion protein (DNA polymerase theta) (human) (UniProt O75417). In words: affinity purification with mass spectrometry; anti-HA immunoprecipitate from 293T cells expressing Polθ-FLAG-HA, analysed by LC-MS/MS.

Sequences of proteins named here, by UniProt entry; tags and fusion partners are left off.
UniProt O75417: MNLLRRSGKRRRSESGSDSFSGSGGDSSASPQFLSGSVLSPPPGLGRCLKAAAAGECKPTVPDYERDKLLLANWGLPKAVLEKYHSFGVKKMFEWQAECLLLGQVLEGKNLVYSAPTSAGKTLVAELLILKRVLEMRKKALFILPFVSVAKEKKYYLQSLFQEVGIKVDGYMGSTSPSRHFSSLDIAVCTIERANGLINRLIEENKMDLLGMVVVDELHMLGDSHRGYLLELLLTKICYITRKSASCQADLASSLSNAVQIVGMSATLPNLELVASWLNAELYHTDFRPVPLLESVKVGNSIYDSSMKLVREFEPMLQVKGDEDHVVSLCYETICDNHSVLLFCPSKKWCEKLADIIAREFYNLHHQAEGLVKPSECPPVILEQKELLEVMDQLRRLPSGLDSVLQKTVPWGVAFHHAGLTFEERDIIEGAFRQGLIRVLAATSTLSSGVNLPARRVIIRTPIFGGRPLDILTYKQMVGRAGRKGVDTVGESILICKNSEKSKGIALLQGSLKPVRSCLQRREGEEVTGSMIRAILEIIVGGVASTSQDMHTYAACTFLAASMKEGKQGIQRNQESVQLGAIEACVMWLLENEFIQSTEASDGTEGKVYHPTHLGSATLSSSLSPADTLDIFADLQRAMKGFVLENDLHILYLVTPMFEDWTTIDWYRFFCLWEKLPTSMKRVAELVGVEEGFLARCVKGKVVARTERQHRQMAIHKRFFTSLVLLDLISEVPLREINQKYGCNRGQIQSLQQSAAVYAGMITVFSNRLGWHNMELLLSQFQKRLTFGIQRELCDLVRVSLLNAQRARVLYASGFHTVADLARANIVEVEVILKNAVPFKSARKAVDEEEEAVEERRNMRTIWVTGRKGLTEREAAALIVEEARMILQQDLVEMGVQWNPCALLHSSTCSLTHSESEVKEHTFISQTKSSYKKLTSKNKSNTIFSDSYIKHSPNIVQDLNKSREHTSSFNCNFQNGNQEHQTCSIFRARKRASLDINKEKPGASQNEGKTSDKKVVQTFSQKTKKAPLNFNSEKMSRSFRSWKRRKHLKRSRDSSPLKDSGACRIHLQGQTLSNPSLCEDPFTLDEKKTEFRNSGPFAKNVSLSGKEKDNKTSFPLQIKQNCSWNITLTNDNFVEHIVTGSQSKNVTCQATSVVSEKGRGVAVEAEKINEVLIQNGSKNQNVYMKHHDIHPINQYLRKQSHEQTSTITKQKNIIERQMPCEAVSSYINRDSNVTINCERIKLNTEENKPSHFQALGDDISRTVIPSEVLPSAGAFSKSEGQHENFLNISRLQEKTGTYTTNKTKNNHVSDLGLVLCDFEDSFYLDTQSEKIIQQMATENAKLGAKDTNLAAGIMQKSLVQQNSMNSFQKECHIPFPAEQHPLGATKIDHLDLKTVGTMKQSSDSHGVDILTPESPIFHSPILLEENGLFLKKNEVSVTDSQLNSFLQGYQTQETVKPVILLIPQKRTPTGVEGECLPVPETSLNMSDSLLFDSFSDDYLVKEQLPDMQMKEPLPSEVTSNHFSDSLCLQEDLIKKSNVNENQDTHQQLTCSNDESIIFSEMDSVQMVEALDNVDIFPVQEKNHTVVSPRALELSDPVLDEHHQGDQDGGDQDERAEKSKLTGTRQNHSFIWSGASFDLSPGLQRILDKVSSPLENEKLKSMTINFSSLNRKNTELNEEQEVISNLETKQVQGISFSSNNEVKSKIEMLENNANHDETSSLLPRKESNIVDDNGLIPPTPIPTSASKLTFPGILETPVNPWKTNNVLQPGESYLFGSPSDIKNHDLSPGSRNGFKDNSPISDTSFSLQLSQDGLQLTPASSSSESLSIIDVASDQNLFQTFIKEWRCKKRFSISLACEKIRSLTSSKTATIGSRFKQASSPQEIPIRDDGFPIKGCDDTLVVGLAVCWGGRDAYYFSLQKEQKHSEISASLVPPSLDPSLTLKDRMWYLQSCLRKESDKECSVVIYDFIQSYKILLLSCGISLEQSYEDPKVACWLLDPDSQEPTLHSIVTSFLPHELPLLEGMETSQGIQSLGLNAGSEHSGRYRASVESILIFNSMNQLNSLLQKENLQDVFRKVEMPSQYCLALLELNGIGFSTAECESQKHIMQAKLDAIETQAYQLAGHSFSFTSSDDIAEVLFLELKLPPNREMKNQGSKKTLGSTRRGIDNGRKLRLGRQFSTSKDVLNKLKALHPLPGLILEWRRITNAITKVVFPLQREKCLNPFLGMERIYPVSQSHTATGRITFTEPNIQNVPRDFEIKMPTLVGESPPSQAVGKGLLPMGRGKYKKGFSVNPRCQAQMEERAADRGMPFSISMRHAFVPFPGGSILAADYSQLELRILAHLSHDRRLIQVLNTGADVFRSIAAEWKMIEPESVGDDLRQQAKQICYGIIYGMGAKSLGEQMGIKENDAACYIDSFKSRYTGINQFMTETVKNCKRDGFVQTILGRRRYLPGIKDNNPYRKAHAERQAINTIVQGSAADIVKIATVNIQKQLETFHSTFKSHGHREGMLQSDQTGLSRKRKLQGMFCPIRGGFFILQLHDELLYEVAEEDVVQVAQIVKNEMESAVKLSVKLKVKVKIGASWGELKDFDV
UniProt P09874: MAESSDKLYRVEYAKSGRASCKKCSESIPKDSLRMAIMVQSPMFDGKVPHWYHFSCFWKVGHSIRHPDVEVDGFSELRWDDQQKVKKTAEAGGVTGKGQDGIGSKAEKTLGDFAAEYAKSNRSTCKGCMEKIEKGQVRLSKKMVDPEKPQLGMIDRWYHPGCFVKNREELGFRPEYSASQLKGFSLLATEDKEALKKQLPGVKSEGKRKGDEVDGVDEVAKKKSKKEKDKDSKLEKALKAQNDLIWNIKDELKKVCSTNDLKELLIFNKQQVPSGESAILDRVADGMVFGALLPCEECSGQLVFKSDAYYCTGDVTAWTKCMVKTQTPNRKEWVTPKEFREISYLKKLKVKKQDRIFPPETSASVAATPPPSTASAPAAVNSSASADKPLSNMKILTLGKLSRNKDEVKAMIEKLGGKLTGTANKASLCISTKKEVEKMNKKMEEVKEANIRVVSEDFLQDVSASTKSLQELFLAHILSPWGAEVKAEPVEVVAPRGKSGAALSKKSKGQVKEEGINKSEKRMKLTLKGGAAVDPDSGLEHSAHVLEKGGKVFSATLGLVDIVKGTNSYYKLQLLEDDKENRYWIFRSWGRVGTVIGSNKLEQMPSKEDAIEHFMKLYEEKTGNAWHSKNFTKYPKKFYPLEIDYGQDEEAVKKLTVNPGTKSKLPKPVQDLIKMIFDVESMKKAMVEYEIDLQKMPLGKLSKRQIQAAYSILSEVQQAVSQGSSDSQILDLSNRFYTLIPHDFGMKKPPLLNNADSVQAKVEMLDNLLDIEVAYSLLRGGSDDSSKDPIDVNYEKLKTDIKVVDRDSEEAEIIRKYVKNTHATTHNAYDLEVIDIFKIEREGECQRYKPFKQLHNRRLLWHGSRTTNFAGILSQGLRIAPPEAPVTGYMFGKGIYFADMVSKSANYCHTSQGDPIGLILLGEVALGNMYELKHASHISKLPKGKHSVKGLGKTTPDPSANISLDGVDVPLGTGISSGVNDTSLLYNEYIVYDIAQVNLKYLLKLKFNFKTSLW

No constants are given. Whether binding was seen depends on the method and setting. In cells and extracts the contact can be indirect. These calls come from enrichment with a bait or labelling near it, and not all partners need be listed.

The text below walks through data of PMC11236980, “PARG is essential for Polθ-mediated DNA end-joining by removing repressive poly-ADP-ribose marks”.

Regarding “Poly(ADP-ribose) polymerase 1 (PARP1) (from UniProt P09874 1-1014)”, the binding result was “binds”.
